Reference: PubChem BioAssay AID587 (National Center for Advancing Translational Sciences (NCATS), 2007)
Values joined by “and” are separate entries in the source; they are usually repeats but may differ in a detail not shown here. Identical values can stand only once. About 35 (0.06%) of roughly 59,000 compounds were called active. This list was built around the results that the source calls inconclusive (neither active nor inactive); the mix of calls is not that of the screen. Cut-off read from the data, not from the text of the source: active = max dye-equivalent concentration above about 10 nM; inconclusive = between about 1.1 nM and that limit; inactive = weaker than that.

test: qHTS Assay for Spectroscopic Profiling in Texas Red Spectral Region; settings: Compound fluorescence, Texas Red channel, 547/618 nm; stronger effect = higher value
Method in brief: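 qHTS profiling of intrinsic compound fluorescence; 100 mM Tris pH 8.0; 15 min RT; ex 547 / em 618 nm; response expressed as Texas Red dye-equivalent concentration from six-point plate standard.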

Compound | max dye-equivalent concentration
Cc1cc(C)cc(N(C(C)C(=O)Nc2c(C)n(C)n(-c3ccccc3)c2=O)S(C)(=O)=O)c1 (configuration not stated) | inconclusive: 1.3e-09 M
COc1ccc2nc(NCN3C(=O)c4ccccc4C3=O)sc2c1 | inactive
CC1CC(c2ccccc2)n2nc(NC(=O)c3cccs3)nc2N1 (configuration not stated) | inconclusive: 1.2e-09 M
CC1=C(C)CC(C(=O)N2CCN(Cc3ccccc3)CC2)C(C(=O)O)C1 (configuration not stated) | inactive
CCOc1ccccc1-c1nn2c(Cc3ccccc3)nnc2s1 | inconclusive: 1.1e-09 M
CN1CCN(S(=O)(=O)c2ccc(NC(=O)c3ccc(F)cc3)cc2)CC1 | inconclusive: 1.2e-09 M
Cc1cc(OCC(=O)NCc2nc(-c3ccccc3)no2)c(C)cc1Br | inconclusive: 1.2e-09 M
CCCN1C(=O)SC(CC(=O)Nc2ccccc2)C1=O (configuration not stated) | inconclusive: 1.1e-09 M
O=C(O)C1CC=C(Cl)CC1C(=O)NCC1OCCc2ccccc21 (configuration not stated) | inconclusive: 1.8e-09 M
COC(=O)N(C)c1nc2ccccc2s1 | inconclusive: 1.3e-09 M
CCCOc1ccc(Cn2cnc3ccccc32)cc1 | inconclusive: 2.3e-09 M
N#CC(C(=O)NC1CC1)c1nc2ccccc2nc1N1CCN(C/C=C/c2ccccc2)CC1 (configuration not stated) | inactive
CCC1(C)Cc2c(C#N)c(N)sc(=S)c2CO1 (configuration not stated) | inactive
CCN(CC)S(=O)(=O)c1ccc(-c2nnco2)cc1 | inconclusive: 2.5e-09 M
CN=c1scc(C)n1/N=C/c1ccc(O)cc1O | inconclusive: 1.5e-09 M
CCOC(=O)c1sc2ncn(C(C)C(=O)OCC)c(=O)c2c1C (configuration not stated) | inconclusive: 1.2e-09 M
CCN(CC)c1ccc(NC(=O)c2ccccc2F)cc1 | inconclusive: 1.7e-09 M
COc1ccccc1S(=O)(=O)Cc1ccc(C(=O)NC(C)c2ccc3c(c2)OCCO3)o1 (configuration not stated) | inconclusive: 1.2e-09 M
CCC(=O)Nc1ccc(S(=O)(=O)Nc2cccc(C)c2)cc1OC | inconclusive: 1.2e-09 M
COc1cc2cc(CN(C(=O)NC3CCCCC3)C3CCCC3)c(=O)[nH]c2cc1OC | inconclusive: 1.7e-09 M
CCCCSc1c(C)c2cc3c(cc2[nH]c1=O)OCO3 | inconclusive: 2.6e-09 M
Cc1cc(N2CCOCC2)nc(SCC(=O)c2ccc(Cl)cc2)n1 | inconclusive: 1.5e-09 M

Compound | max dye-equivalent concentration
Clc1cc(Cl)c2nc(N3CCOCC3)sc2c1 | inconclusive: 1.4e-09 M
COc1cc2c(cc1OC)C(=NCCC(=O)O)NC(C)(C)C2 | inconclusive: 1.3e-09 M
O=C(Cn1nnc2ccccc2c1=O)N1CCCc2ccccc21 | inconclusive: 1.2e-09 M
CN(C)c1ccc(/C=C/c2ccncc2)cc1 | inactive
COC(=O)c1[nH]c2cc(C)ccc2c1NC(=O)CN1CCN(c2ccccc2OC)CC1 | inconclusive: 2.2e-09 M
CC(=O)O[C@H]1CC[C@]2(C)C(=CC[C@H]3[C@H]4C[C@H]5O[C@]6(CC[C@H](C)CN6)[C@H](C)[C@@H]5[C@]4(C)CC[C@@H]32)C1 | inconclusive: 1.1e-09 M
CCC1CCCCN1C(=O)COC(=O)c1ccc(S(=O)(=O)N2CCOCC2)cc1 (configuration not stated) | inconclusive: 1.4e-09 M
O=C(NCC1CCCO1)C1c2ccccc2C(=O)N1C1CCCCCCC1 (configuration not stated) | inconclusive: 1.6e-09 M
O=C(Cc1c(F)cccc1Cl)Nc1ccncc1 | inconclusive: 1.1e-09 M
CC(C)=C[C@H]1[C@@H](COC(=O)c2ccccc2Cl)C1(C)C | inactive
O=C(NCCOCCOCCNC(=O)c1cccnc1)c1cccnc1 | inconclusive: 1.2e-09 M
Oc1ccccc1/C=N/c1c(-c2ccco2)nc2ccccn12 | inconclusive: 2.6e-09 M
CC(C)(C)n1nnnc1C(c1cccs1)N1CCCC2(CCCCC2)C1 (configuration not stated) | inconclusive: 1.1e-09 M
COc1ccc(-n2nc(C(=O)Nc3ccc4c(c3)OCO4)c3ccccc3c2=O)c(OC)c1 | inconclusive: 1.6e-09 M
COc1ccc(OC)c(C(c2nnnn2C2CCCC2)N2CCN(c3ccccc3)CC2)c1 (configuration not stated) | inconclusive: 1.6e-09 M
CN1CCN(C(=O)c2cc3nc(-c4ccccc4)cc(C(F)(F)F)n3n2)CC1 | inconclusive: 1.2e-09 M
Cc1cccc(-c2nnc3sc(-c4ccccc4)nn23)c1 | inconclusive: 1.1e-09 M
COc1cc(NC(=O)c2ccco2)ccc1NC(=O)c1ccccc1Cl | inconclusive: 2.7e-09 M
COC(=O)c1ccc(NC(=O)CSc2nnc(COc3ccccc3)n2C)cc1 | inconclusive: 1.4e-09 M
COCCSc1ccccc1C(=O)N1CCCC1 | inconclusive: 1.3e-09 M
O=C(NC1CS(=O)(=O)CC1NCc1ccco1)c1ccccc1 (configuration not stated) | inconclusive: 1.5e-09 M
O=C(O)c1cc(NS(=O)(=O)c2cccc3ccccc23)ccc1O | inconclusive: 1.4e-09 M

Compound | max dye-equivalent concentration
CC(C)CCNc1nc2c(cc1C#N)COC(C)(C)C2 | inconclusive: 1.1e-09 M
COc1cccc(-c2cc3nc(-c4ccccc4)cc(N4CCC5(CC4)OCCO5)n3n2)c1 | inconclusive: 1.1e-09 M
CCOCCCn1c(C)nc2c(c1=O)c1nc3ccccc3nc1n2CCC1=CCCCC1 | inconclusive: 1.2e-09 M
COc1ccccc1N1CCN(CCCCNC(=O)c2ccc3ccccc3c2)CC1 | inconclusive: 1.3e-09 M
O=C(O)CSc1nnc(-c2ccncc2)n1C1CCCCC1 | inconclusive: 1.3e-09 M
CCCN(CCc1ccccc1)[C@H]1CCc2c(O)cccc2C1 | inactive
O=c1c2ccccc2nnn1CSc1nnc2sc3ccccc3n12 | inconclusive: 1.7e-09 M
CCN(CC(=O)N1CCCCCC1)S(=O)(=O)c1ccc(Cl)cc1 | inconclusive: 1.2e-09 M
Nc1nc(N)c2nc(CNc3ccc(C(=O)N[C@H](CCC(=O)O)C(=O)O)cc3)cnc2n1 | inactive
c1ccc2cc(-c3cc(-c4cc(-c5ccc6ccccc6c5)on4)no3)ccc2c1 | inactive
COc1nc(OC)nc(N2CCC(C(=O)NCC3CCCCC3)CC2)n1 | inconclusive: 1.8e-09 M
Cc1ccc(NC(=O)NC(=O)N(c2ccccc2)S(C)(=O)=O)cc1 | inconclusive: 1.2e-09 M
O=C(CCCSc1nc2ccccc2[nH]1)NCc1ccco1 | inconclusive: 1.5e-09 M
NS(=O)(=O)c1ccc(NC(=O)N[C@@H](Cc2ccccc2)C(=O)O)cc1 | inconclusive: 1.2e-09 M
CN1CCN(c2ccccc2NC(=O)c2cc(Br)ccc2Cl)CC1 | inconclusive: 2.2e-09 M
O=C(COC(=O)CCC(=O)c1ccc(F)cc1)Nc1ccc(N2CCOCC2)cc1 | inconclusive: 1.2e-09 M
COc1ccc(CCNC(=O)CC2Nc3ccccc3NC2=O)cc1OC (configuration not stated) | inconclusive: 1.8e-09 M
CCCCNc1ccc(C(=O)OCCN(C)C)cc1 | inconclusive: 1.5e-09 M and inconclusive: 1.4e-09 M
CC(=O)NC1Sc2ccccc2N=C1c1ccccc1 (configuration not stated) | inconclusive: 1.6e-09 M
CCCn1nnnc1SCC(=O)c1ccc2c(c1)OCCO2 | inactive
CC(=O)NCCNc1nc(-c2ccccc2Cl)nc2ccccc12 | inactive
Cc1ccc2cc(CCNC(=O)c3ccc(Br)o3)c(=O)[nH]c2c1 | inconclusive: 1.7e-09 M

Compound | max dye-equivalent concentration
COc1ccc(CCN2CCCn3c2nc2c3c(=O)n(Cc3ccccc3F)c(=O)n2C)cc1OC | inconclusive: 1.1e-09 M
COCCCNc1ccnc2c(Cl)cccc12 | inconclusive: 2.1e-09 M
Cc1cccc(CNc2ncnc3ccc(-c4cccc(C#N)c4)cc23)c1 | inactive
O=C(NC(NCc1ccccn1)(C(F)(F)F)C(F)(F)F)c1ccco1 | inconclusive: 1.1e-09 M
Cc1onc(-c2ccccc2)c1C(=O)N1CCN(C(=O)c2ccco2)CC1 | inconclusive: 1.1e-09 M
COc1ccc(S(=O)(=O)Nc2ccc3c(c2)OCCO3)cc1Cl | inconclusive: 1.5e-09 M
CCCn1nnc(NC(=O)c2cccc(OCC(C)C)c2)n1 | inconclusive: 1.2e-09 M
Cc1cccc(N2CCN(C(c3cccs3)c3nnnn3C(C)(C)C)CC2)c1C (configuration not stated) | inconclusive: 1.4e-09 M
N#Cc1ccc(NC(=O)CN2C(=O)NC(Cc3ccccc3)C2=O)cc1 (configuration not stated) | inconclusive: 1.3e-09 M
C=CCn1c(SCC(=O)c2ccccc2)nnc1-c1cc2ccccc2o1 | inconclusive: 2.4e-09 M
Cc1cc(N2CCOCC2)n2nc(-c3cccc(F)c3)cc2n1 | inactive
Cc1cc(Br)ccc1OCC(=O)N(Cc1nc(-c2ccccc2)no1)C(C)C | inconclusive: 1.1e-09 M
CCn1c(SCc2nc3ccccc3s2)nc2cc(S(=O)(=O)N3CCOCC3)ccc21 | inconclusive: 1.9e-09 M
CC(C)(C)C1CCc2onc(C(=O)NCc3ccc(F)cc3)c2C1 (configuration not stated) | inconclusive: 1.1e-09 M
CCC(=O)N1CCc2cc(S(=O)(=O)CCC(=O)NCCC3=CCCCC3)ccc21 | inconclusive: 1.2e-09 M
O=C(OCn1nnc2ccccc2c1=O)C1=COCCO1 | inconclusive: 1.3e-09 M
CN1C=CC2=C(C#N)C(N)C(C#N)(C#N)C(c3ccccc3)C2C1 (configuration not stated) | inactive
Cc1cnc(CNc2ncnc3ccc(-c4ccccc4Cl)cc23)cn1 | inconclusive: 1.1e-09 M
Cc1cc(OCC(O)CN2CCN(CCO)CC2)ccc1C(C)C (configuration not stated) | inconclusive: 1.1e-09 M
CCCOc1ccc(/C(O)=C2/C(=O)C(=O)N(CCCOC)C2c2cccnc2)cc1 (configuration not stated) | inconclusive: 1.1e-09 M
CCSC(SCC)[C@H](O)[C@@H](O)[C@H](O)[C@H](O)CO | inconclusive: 1.1e-09 M
